The other results are listed elsewhere or left out. The data scatter; read single values as rough.

By UniProt entry, the sequences of proteins in these tests, tags left out. Where a name states a change or a piece, a line headed by the entry shows the natural chain unless it says otherwise.
UniProt Q96K83: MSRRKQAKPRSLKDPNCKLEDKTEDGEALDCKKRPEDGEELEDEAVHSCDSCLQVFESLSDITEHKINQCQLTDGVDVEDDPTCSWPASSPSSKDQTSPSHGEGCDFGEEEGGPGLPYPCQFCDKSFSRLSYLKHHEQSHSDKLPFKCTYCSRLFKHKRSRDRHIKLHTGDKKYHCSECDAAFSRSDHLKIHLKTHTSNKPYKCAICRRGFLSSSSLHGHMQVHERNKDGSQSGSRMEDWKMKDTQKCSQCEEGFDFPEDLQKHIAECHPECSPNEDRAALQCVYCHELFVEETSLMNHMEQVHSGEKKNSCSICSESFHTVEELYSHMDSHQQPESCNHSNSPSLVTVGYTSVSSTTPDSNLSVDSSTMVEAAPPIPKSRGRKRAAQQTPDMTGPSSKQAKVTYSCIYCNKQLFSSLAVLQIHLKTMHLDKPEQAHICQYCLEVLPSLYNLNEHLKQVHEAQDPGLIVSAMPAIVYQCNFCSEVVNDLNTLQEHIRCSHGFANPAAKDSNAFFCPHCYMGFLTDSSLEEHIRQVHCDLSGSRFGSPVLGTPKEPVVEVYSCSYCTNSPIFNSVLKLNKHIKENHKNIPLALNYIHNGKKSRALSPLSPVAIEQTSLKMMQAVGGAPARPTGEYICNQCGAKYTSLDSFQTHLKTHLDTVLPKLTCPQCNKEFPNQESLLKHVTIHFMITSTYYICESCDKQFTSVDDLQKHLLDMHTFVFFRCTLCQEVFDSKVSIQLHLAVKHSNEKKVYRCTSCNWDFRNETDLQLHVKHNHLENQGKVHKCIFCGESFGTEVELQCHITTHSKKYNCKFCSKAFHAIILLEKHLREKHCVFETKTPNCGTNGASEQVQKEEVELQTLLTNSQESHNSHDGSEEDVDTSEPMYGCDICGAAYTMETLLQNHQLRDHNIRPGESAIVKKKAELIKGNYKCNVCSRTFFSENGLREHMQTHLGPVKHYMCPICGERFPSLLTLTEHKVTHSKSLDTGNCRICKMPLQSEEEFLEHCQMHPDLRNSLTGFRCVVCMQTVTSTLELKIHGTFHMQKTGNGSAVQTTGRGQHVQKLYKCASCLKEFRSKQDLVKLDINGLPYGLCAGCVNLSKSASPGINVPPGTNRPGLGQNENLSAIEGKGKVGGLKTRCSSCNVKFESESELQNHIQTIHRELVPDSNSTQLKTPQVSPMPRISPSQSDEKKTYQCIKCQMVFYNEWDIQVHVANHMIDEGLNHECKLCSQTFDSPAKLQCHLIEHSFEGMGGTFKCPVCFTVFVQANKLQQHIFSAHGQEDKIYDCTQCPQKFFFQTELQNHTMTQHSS
UniProt Q7Z3T8: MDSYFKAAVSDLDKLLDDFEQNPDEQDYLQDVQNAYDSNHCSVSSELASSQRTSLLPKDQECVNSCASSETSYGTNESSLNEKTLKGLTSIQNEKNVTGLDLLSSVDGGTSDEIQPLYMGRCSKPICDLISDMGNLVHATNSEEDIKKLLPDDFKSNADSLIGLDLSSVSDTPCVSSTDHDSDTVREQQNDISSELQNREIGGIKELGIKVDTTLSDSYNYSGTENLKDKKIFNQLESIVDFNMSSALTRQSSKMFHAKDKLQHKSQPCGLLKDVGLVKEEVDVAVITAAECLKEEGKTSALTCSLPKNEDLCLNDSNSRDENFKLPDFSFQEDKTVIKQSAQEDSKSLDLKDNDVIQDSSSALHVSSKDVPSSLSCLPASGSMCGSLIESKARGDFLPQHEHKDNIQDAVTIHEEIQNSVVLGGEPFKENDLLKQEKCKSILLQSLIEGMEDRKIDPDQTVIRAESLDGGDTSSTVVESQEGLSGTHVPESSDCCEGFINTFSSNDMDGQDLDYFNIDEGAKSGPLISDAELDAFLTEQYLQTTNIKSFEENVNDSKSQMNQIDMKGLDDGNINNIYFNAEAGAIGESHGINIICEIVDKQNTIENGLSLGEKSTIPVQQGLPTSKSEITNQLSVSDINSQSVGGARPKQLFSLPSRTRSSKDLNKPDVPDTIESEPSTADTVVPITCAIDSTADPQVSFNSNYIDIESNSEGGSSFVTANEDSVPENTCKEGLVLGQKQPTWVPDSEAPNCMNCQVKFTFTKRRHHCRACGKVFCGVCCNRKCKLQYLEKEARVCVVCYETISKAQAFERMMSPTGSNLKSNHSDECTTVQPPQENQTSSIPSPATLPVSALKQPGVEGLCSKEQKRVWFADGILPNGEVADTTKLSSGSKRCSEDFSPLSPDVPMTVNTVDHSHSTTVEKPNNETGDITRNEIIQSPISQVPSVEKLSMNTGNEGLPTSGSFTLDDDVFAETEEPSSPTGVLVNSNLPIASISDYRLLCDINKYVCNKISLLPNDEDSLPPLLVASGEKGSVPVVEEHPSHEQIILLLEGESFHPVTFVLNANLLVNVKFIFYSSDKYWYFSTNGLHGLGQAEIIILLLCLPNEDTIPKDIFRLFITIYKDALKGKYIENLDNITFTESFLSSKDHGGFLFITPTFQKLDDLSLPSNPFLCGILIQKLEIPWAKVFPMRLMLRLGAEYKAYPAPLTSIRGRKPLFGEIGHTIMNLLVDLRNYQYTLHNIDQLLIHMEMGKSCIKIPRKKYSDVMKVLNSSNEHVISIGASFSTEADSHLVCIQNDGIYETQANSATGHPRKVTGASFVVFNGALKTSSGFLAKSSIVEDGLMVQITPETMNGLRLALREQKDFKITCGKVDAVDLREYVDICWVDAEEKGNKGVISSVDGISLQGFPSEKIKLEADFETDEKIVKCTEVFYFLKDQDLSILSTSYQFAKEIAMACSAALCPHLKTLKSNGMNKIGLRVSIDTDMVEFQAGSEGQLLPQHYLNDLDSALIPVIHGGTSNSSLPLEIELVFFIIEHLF
UniProt Q14202: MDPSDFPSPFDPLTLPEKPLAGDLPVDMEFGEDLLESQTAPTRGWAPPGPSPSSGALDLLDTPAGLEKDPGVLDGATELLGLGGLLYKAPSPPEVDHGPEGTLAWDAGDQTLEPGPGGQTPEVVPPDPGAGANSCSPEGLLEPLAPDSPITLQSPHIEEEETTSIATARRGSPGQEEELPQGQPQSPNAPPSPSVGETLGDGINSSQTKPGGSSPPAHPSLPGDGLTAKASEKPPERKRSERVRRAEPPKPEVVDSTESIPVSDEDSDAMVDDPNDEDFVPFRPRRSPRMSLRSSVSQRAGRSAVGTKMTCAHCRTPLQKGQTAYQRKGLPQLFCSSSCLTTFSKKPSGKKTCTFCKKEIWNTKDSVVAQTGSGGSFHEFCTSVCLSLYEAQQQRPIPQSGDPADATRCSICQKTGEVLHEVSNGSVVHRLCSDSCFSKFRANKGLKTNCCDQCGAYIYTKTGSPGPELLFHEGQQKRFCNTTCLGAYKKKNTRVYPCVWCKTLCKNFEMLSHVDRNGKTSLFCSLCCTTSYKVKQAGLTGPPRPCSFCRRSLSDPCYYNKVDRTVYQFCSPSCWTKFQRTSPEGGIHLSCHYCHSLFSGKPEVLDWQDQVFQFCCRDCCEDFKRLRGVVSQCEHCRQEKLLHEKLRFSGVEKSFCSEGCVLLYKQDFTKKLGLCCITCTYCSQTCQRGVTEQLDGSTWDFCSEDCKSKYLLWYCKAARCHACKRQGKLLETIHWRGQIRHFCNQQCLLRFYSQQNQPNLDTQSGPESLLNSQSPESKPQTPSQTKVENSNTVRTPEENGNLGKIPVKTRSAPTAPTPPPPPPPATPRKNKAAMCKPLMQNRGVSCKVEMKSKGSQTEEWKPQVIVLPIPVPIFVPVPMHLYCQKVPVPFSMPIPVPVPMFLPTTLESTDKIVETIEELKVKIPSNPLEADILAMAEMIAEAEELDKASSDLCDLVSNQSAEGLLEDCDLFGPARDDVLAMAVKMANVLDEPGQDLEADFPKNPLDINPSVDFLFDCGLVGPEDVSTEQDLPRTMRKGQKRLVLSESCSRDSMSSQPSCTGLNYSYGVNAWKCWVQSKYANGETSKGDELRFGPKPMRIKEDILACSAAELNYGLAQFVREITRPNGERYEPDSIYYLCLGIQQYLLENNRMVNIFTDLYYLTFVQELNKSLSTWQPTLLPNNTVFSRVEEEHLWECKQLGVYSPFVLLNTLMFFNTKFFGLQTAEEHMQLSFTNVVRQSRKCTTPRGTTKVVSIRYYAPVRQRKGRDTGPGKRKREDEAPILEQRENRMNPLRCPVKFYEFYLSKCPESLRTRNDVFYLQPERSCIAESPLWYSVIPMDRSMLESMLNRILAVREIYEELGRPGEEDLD
UniProt Q9Y6X8: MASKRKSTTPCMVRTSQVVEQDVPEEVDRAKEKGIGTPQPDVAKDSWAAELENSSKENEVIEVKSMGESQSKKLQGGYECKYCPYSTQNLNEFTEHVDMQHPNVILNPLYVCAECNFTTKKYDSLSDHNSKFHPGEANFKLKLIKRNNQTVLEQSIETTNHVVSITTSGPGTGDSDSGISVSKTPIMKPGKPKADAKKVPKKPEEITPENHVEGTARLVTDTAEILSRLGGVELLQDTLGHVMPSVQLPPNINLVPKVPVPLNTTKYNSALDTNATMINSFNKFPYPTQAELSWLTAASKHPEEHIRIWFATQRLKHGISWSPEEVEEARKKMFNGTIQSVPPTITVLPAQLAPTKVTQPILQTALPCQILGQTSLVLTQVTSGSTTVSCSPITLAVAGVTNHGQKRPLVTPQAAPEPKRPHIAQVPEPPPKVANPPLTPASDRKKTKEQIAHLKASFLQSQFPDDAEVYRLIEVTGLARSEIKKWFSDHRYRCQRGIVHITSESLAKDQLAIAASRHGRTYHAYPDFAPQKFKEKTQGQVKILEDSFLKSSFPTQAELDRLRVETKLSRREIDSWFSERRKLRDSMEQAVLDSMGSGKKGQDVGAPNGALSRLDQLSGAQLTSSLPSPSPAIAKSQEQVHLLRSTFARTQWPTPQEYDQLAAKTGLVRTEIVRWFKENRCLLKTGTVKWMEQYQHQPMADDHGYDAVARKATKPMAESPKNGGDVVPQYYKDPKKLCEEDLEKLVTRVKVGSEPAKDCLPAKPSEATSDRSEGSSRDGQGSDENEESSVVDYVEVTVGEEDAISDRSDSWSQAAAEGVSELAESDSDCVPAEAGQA
UniProt Q9Y4E5: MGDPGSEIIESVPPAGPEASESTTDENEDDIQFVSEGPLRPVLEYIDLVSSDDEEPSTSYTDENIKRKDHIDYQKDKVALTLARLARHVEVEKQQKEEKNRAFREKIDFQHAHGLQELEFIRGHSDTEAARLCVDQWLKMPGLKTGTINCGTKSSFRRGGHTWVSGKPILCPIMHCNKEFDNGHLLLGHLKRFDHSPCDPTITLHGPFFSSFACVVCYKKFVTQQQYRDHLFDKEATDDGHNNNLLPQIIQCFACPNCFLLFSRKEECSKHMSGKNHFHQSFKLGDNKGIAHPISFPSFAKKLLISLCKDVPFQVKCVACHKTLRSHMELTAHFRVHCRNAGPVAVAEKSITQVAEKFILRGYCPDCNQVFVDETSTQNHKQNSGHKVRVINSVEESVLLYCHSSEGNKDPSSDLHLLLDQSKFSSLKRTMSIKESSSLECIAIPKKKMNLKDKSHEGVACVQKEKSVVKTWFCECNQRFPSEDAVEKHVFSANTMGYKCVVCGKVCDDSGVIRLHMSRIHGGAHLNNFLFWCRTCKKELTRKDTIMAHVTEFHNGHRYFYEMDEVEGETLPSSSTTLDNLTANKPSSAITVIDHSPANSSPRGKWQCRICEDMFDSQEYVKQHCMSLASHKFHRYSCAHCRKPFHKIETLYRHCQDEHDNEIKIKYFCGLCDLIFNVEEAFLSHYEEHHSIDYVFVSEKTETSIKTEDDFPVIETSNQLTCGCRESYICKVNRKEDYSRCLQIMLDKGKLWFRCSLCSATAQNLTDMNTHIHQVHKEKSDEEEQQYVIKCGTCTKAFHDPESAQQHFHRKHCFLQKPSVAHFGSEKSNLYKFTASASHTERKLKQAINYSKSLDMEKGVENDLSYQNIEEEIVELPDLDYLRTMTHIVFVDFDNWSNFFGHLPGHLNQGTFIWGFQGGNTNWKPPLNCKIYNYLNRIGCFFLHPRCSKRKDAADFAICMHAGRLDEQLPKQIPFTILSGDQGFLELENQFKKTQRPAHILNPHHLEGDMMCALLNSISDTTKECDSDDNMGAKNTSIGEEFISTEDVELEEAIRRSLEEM
UniProt Q9H707: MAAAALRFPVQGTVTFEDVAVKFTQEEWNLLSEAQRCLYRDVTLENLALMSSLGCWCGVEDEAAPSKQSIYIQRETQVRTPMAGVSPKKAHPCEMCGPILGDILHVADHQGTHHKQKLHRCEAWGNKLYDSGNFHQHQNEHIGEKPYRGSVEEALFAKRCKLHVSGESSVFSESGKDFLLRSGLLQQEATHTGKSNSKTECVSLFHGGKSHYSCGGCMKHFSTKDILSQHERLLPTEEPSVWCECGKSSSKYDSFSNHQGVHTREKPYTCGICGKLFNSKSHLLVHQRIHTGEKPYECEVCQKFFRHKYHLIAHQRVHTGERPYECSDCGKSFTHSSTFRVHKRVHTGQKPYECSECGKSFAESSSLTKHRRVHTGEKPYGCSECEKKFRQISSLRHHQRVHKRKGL

Compound in this assay: ClCC(=O)N[C@@H]1CCCc2ccccc12
The assay can be described thus: log2 mean competition ratio of IA-DTB cysteine labelling (DMSO/compound) (log2 ratio); higher = stronger cysteine engagement by compound. Particulars: 50 µM; treatment time: 4 h; cell line lysate: HEK293T. As for the experimental part:
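IA-DTB competitive cysteine chemoproteomics in HEK293T RIPA lysate. Lysates were treated with compound 29 or 30 at 50 or 200 µM for 4 h, then IA-DTB (500 µM, 1 h), trypsin-digested, NeutrAvidin-enriched and analysed by diaPASEF. Competition ratio = intensity DMSO / intensity compound (n=4 treated, n=64 DMSO); binding: mean log2 CR ≥ 1 and p ≤ 0.05 plus QC filters. Target is the cysteine site.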
For ZC3HAV1 C272 (UniProt Q7Z2W4), the “log2 mean competition ratio” value is 0.0238.

For ZNF638 C879 (UniProt Q14966), the “log2 mean competition ratio” value was -0.145.

Consider ZNF512 C540 (UniProt Q96ME7), for which the “log2 mean competition ratio” value is -0.228.

Consider ZMYM2 C663 (UniProt Q9UBW7), for which the “log2 mean competition ratio” value was 0.128.

Regarding ZNF35 C156, the “log2 mean competition ratio” value was 0.239.

As for ZNF777 C602, the “log2 mean competition ratio” value was -0.225.

As for ZNF521 C833 (UniProt Q96K83), the “log2 mean competition ratio” value was determined as 0.358.

As to ZNF574 C656 (UniProt Q6ZN55), the “log2 mean competition ratio” value came out at 0.0346.

Regarding ZFYVE16 C863 (UniProt Q7Z3T8), the “log2 mean competition ratio” value was -0.442.

Consider ZC3H7B C940 (UniProt Q9UGR2), for which the “log2 mean competition ratio” value was 0.101.

With ZZZ3 C104 (UniProt Q8IYH5), the “log2 mean competition ratio” value is -0.33.

Consider ZNF823 C343, for which the “log2 mean competition ratio” value came to 0.26.

ZNF687 C755 (UniProt Q8N1G0): the “log2 mean competition ratio” value was 0.521.

For ZNF100 C9 (UniProt Q8IYN0), the “log2 mean competition ratio” value was found to be 0.231.

As to ZGRF1 C571 (UniProt Q86YA3), the “log2 mean competition ratio” value was -0.0907.

As to ZNF609 C944 (UniProt O15014), the “log2 mean competition ratio” value was -0.172.

In the case of ZNF776 C238, the “log2 mean competition ratio” value is -0.127.

In the case of ZMYM3 C557 (UniProt Q14202), the “log2 mean competition ratio” value is -0.00174.

As to ZNF318 C1860 (UniProt Q5VUA4), the “log2 mean competition ratio” value worked out at 0.224.

Consider ZHX2 C738 (UniProt Q9Y6X8), for which the “log2 mean competition ratio” value stood at 0.117.

As for ZMYM2 C667 (UniProt Q9UBW7), the “log2 mean competition ratio” value is -0.252.

As to ZNF668 C241 (UniProt Q96K58), the “log2 mean competition ratio” value turned out to be 0.0764.

For the target ZNF644 C554 (UniProt Q9H582), the “log2 mean competition ratio” value is 0.166.

As to ZNF451 C461 (UniProt Q9Y4E5), the “log2 mean competition ratio” value is -0.131.

On to ZNF263 C284, for which the “log2 mean competition ratio” value is 0.0937.

As for ZNF518A C813, the “log2 mean competition ratio” value came out at 0.061.

As to ZNF552 C121 (UniProt Q9H707), the “log2 mean competition ratio” value came to 0.139.

ZSWIM3 C151: the “log2 mean competition ratio” value is -0.0126.

For ZNF292 C1050 (UniProt O60281), the “log2 mean competition ratio” value was -0.134.

The values above are taken from the supplement of paper PMC11732987, “Enantioselective OTUD7B fragment discovery through chemoproteomics screening and high-throughput optimisation” (Communications Chemistry, 2025).
